No constants are given. Whether binding was seen depends on the method and setting. In cells and extracts the contact can be indirect. Some results given as binding are weak or reduced against the parent protein; the word gives no strength.

Sequences of proteins named here, by UniProt entry; tags and fusion partners are left off. A change or cut given only in a name is not applied to a line headed by its entry.
UniProt P38606: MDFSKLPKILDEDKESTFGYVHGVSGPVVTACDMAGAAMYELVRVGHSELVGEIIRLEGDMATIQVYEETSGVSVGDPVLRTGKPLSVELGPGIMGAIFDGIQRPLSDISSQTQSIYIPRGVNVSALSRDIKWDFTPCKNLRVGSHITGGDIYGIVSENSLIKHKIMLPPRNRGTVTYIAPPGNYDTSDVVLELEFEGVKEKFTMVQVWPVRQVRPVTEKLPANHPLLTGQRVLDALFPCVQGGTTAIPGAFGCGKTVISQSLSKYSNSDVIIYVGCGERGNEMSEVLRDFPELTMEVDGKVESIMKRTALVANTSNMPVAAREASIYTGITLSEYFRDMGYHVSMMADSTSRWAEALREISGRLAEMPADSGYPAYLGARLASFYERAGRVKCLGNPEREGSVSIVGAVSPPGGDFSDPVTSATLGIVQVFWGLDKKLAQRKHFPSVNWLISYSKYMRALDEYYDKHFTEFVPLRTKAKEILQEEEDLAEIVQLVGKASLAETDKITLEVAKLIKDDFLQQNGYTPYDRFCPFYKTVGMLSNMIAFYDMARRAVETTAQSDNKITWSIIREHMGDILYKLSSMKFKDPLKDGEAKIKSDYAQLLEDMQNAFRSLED
UniProt Q93050: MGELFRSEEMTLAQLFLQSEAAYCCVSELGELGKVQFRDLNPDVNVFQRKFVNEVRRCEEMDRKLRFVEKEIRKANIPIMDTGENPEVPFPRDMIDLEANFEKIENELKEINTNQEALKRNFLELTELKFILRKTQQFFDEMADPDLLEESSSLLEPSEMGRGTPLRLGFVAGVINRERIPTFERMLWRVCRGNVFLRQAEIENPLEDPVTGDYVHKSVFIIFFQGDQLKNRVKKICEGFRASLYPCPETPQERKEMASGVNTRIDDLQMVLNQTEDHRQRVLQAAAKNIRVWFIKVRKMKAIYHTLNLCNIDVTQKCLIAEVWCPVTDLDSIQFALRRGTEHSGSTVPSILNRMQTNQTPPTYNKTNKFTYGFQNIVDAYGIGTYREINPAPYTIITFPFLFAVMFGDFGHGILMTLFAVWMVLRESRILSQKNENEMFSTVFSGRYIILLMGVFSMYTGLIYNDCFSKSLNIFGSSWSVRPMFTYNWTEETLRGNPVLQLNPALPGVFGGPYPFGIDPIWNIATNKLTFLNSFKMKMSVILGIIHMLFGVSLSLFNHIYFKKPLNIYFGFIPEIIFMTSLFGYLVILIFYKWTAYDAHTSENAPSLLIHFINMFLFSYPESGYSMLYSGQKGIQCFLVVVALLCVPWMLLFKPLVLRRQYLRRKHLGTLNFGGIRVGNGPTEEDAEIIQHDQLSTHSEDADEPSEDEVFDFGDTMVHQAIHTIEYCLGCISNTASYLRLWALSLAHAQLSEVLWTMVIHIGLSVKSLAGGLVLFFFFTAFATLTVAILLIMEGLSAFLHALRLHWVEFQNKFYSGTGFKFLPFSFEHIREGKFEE

For this test, the target named is V-ATPase subunit V1A (human (endogenous in HeLa)) (UniProt P38606). In words: co-IP; V1A antibody (IgG as control) with HeLa cell lysate (RIPA buffer, 1% NP-40, 0.25% deoxycholate), Dynabeads Protein G, 4 C; blots for V0a1, V1A and GAPDH; cells treated with 0.1% DMSO or TSN 100 nM for 12 h.

Consider “V-ATPase subunit V0a1 (from UniProt Q93050 1-837)”, for which the binding entry is “binds”.

(Values after paper PMC9066121.)
